Data: PMC7819943, “Rice protein-binding microarrays: a tool to detect cis-acting elements near promoter regions in rice”
This is one part of the list.

Amino acid sequences for entries named in this document (tags omitted).
UniProt Q0JBA9, entry or part of it: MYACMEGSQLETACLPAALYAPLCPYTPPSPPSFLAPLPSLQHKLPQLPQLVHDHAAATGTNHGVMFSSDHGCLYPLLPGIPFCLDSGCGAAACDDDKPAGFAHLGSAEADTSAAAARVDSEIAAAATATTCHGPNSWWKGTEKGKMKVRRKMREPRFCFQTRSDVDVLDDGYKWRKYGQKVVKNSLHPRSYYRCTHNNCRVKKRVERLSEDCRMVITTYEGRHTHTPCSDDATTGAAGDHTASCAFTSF

Each sequence was assayed against OsWRKY34 (Oryza sativa, UniProt Q0JBA9 1-250) (assay: protein-binding microarray (RPBM); PBS, 2% BSA, 51.3 ng/ul salmon testes DNA, 50 uM zinc acetate, 200 nM TF, 25 C, 1 h; high values mean tight binding). Settings: protein: recombinant; tags: N-terminal polyhistidine and DsRed monomer fusion (pET32a); label: CyDye5-dUTP incorporated in the synthesized complementary strand; 3' TTTTT single-stranded linker to array surface; dsDNA, one strand shown.
In short: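 The binding signal for each feature is its fluorescence intensity in arbitrary units. An Axon 4000B scanner was used to read a custom Agilent array that had been made double-stranded with Cy5-dUTP primer extension, blocked with 2% BSA, incubated at 25 °C for 1 h with 200 nM protein in PBS, 2% BSA, salmon testes DNA and 50 µM zinc acetate, and washed. The protein was an N-terminal polyhistidine–DsRed transcription factor fusion from E. coli BL21-CodonPlus, purified on Ni–NTA.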
In the case of “GACACCCTATATAATACCTGATGTGATACGCCAACACTTTCGGAGTCACCTAGTGCAG”, the binding signal is reported as 8920 fluorescence intensity (a.u.). “ATACGCATCACTGGATATCTTTCACATCACTTTAAGCATACGGAGTCACCTAGTGCAG” was tested, and the binding signal was 9450 fluorescence intensity (a.u.). With “TTTCAGATCATGGTTTGGTTTGGTAGGGTTTGTGCACTGTCGGAGTCACCTAGTGCAG” the binding signal was 11100 fluorescence intensity (a.u.). “CAAATATACACGGTGTTACTGGATCTCCCGGCCCTACAGACGGAGTCACCTAGTGCAG” was tested, and the binding signal was 8110 fluorescence intensity (a.u.). With “AACCGCTTTTTTTTCATTTTCTCTTATTTTTGTGTATTATCGGAGTCACCTAGTGCAG” the binding signal was 10700 fluorescence intensity (a.u.). For “TATGGACTGTTTTGTTTTGTTCCCCTAGCTAGAATTATTCCGGAGTCACCTAGTGCAG”, the binding signal was 9880 fluorescence intensity (a.u.). In the case of “TTTCTATTCCTCTGTTTTTCTATTCTTGTGATTCAAAGGGCGGAGTCACCTAGTGCAG”, the binding signal is reported as 8840 fluorescence intensity (a.u.). In the case of “GAGTTTAACTTTGATAATTGTTCTCGTTTTTTCTAAACTCCGGAGTCACCTAGTGCAG”, the binding signal is reported as 8140 fluorescence intensity (a.u.). “GCTCAACTGTACGATGTTTTTATTGAACTTATCTATACCCCGGAGTCACCTAGTGCAG” was tested, and the binding signal was 9560 fluorescence intensity (a.u.). In the case of “CACCTAGCAGTTTTCTGAAATGCCCAACTACCGTTCTCGTCGGAGTCACCTAGTGCAG”, the binding signal is reported as 8930 fluorescence intensity (a.u.). With “TCAAGATGCATGTATCTATCCTGTACAAGTGAACAGCTCACGGAGTCACCTAGTGCAG” the binding signal was 8250 fluorescence intensity (a.u.). For “CCCACGTCACGCCCACACACACGCTGGCCCTCTCAACGGCCGGAGTCACCTAGTGCAG”, the binding signal was 8580 fluorescence intensity (a.u.). For “CCCACACCTCCACTCCACTCCACGCCATTTTTTCGCTCGCCGGAGTCACCTAGTGCAG”, the binding signal was 9440 fluorescence intensity (a.u.). In the case of “GTTGACATCTTGTTTTTTGGTTCGTTTGCCATGGTAGTTTCGGAGTCACCTAGTGCAG”, the binding signal is reported as 8220 fluorescence intensity (a.u.). “CCACCAACCTGCATCCTGGCCCAATCACGTCCCACCGAATCGGAGTCACCTAGTGCAG” was tested, and the binding signal was 9700 fluorescence intensity (a.u.). In the case of “ACATGTCAGCCGCGATCCAGTTCTAGCCCAACAACTATGGCGGAGTCACCTAGTGCAG”, the binding signal is reported as 8340 fluorescence intensity (a.u.). “ATTTCACCGTCACCGCCTCATTCTTTCCGATCCTCCGCGCCGGAGTCACCTAGTGCAG” was tested, and the binding signal was 9500 fluorescence intensity (a.u.). With “TCCCGCTGCTGTGTGCGTGTGCGTGCCGAGGGAGGGAGGGCGGAGTCACCTAGTGCAG” the binding signal was 9550 fluorescence intensity (a.u.). In the case of “GGGCCACCGCGAACAACTGATCTCCTCCGAACCCTCTGCACGGAGTCACCTAGTGCAG”, the binding signal is reported as 8230 fluorescence intensity (a.u.). With “GTGCCTGAACTAGCATAATCACTGTGTCACCATCTTTCCTCGGAGTCACCTAGTGCAG” the binding signal was 8060 fluorescence intensity (a.u.). “AATCGTACCCATTGGATCCAGATATCCAACGCTTCAGAATCGGAGTCACCTAGTGCAG” was tested, and the binding signal was 8040 fluorescence intensity (a.u.). With “ATCATCCAGCACAATCAAACATTTGCTATCTTCAATCTTTCGGAGTCACCTAGTGCAG” the binding signal was 9340 fluorescence intensity (a.u.). With “AACCTCGCCCTCGTCCGCGTACACCGGCGCAGCCTGAGACCGGAGTCACCTAGTGCAG” the binding signal was 8900 fluorescence intensity (a.u.). With “ATTGGATCGGATCAGATCCCTTTTGCGCACCACTCGCCTTCGGAGTCACCTAGTGCAG” the binding signal was 8750 fluorescence intensity (a.u.). “CCCTGAAGCAATTTTGTTCGCTGTGCAGATGTGCTACCATCGGAGTCACCTAGTGCAG” was tested, and the binding signal was 8050 fluorescence intensity (a.u.). “AGCTAACAAAATGCCCACTTGTGCATACATTCTTTCTTTTCGGAGTCACCTAGTGCAG” was tested, and the binding signal was 8670 fluorescence intensity (a.u.). “CTGTCCTTCTATGTGATTTATCTTACCTTTTGCTCATTACCGGAGTCACCTAGTGCAG” was tested, and the binding signal was 10400 fluorescence intensity (a.u.). For “TCTCTCTTCACGGGAGGGCAGTGTGGTTTTGGTCGGATTCCGGAGTCACCTAGTGCAG”, the binding signal was 8630 fluorescence intensity (a.u.). With “TCTTCGAAGATGCTCATAGGGGTAGGGTTTGCGTGCGTGTCGGAGTCACCTAGTGCAG” the binding signal was 9040 fluorescence intensity (a.u.). “CCATCTCAACCCATTTGCACCCACGTCGCCGTGCATCCGCCGGAGTCACCTAGTGCAG” was tested, and the binding signal was 8510 fluorescence intensity (a.u.). With “GGTATTTGTCTTTCACCTTGAGTCAGCCCCAATTTCCAATCGGAGTCACCTAGTGCAG” the binding signal was 9270 fluorescence intensity (a.u.). For “CAGACCGTACAATTTACGAGTACTTCACTGTTTCCTTTCTCGGAGTCACCTAGTGCAG”, the binding signal was 11800 fluorescence intensity (a.u.). With “GGAATGGGGACTTACAGGGTTTTGCAATTTATTGGGTTTACGGAGTCACCTAGTGCAG” the binding signal was 8210 fluorescence intensity (a.u.). “CACAGGGCATGAATTGATGAATAGGATGGCCATTTTTTTTCGGAGTCACCTAGTGCAG” was tested, and the binding signal was 65000 fluorescence intensity (a.u.). “GATTGGTTGAAAATGTTTCTATTCTTAATGAATATCCTATCGGAGTCACCTAGTGCAG” was tested, and the binding signal was 8080 fluorescence intensity (a.u.). In the case of “AAGGATCGCTTTGTTTCCTTTCGTTTCGTTTCGTTTTGGGCGGAGTCACCTAGTGCAG”, the binding signal is reported as 8610 fluorescence intensity (a.u.). In the case of “TCCACCTTCCCTTTTATTTTGGAGAACTTTACAGCCAAAACGGAGTCACCTAGTGCAG”, the binding signal is reported as 11800 fluorescence intensity (a.u.). In the case of “TGCATTCTTACTCTCTCTATCTTTAAAAAATCAATATTATCGGAGTCACCTAGTGCAG”, the binding signal is reported as 8040 fluorescence intensity (a.u.). “ATCTATCTCTGACCTCTCCTCTCCACATGCTCATCGATCACGGAGTCACCTAGTGCAG” was tested, and the binding signal was 8610 fluorescence intensity (a.u.). With “GCTCCGTGGCACTATTTTTTTTTTACCGCGAATCCTCCAACGGAGTCACCTAGTGCAG” the binding signal was 9550 fluorescence intensity (a.u.). With “GCACCACATCCCCACTCACCCCTGCGCCTCTCCCCAATTCCGGAGTCACCTAGTGCAG” the binding signal was 8490 fluorescence intensity (a.u.). For “CAGTTTCGTCTCGCCGGCGTTGTATTTCCACATCAACGTGCGGAGTCACCTAGTGCAG”, the binding signal was 10800 fluorescence intensity (a.u.). For “CTGGTAGTTGCCTTGCGCGTTCTTTGTCTCTGTCTCTCTCCGGAGTCACCTAGTGCAG”, the binding signal was 10300 fluorescence intensity (a.u.). With “CTTCGCATCCCTGCCCGACTCGGCCTCTCTGTCGCCGTCCCGGAGTCACCTAGTGCAG” the binding signal was 10300 fluorescence intensity (a.u.). “CTCGTCGATGTAGCGCTCCTCCCGTTCCTGGTCTCCAACGCGGAGTCACCTAGTGCAG” was tested, and the binding signal was 8230 fluorescence intensity (a.u.). For “CTTCCCAAGCGTGTCGCCCTTATCCGGCTGCCTCGTGTCCCGGAGTCACCTAGTGCAG”, the binding signal was 8080 fluorescence intensity (a.u.). For “ATCCTGTTTTTTTTTGTTCCTTTTTTCTTTACTTTGCGCCCGGAGTCACCTAGTGCAG”, the binding signal was 13200 fluorescence intensity (a.u.). For “GGTGGAGAAGTGCGAGTGATGGCGCGGGGTAGTGGTGGGGCGGAGTCACCTAGTGCAG”, the binding signal was 11400 fluorescence intensity (a.u.). “TGTCATTTATCGTAGTACAATTCTATCTCCACACCTTTCACGGAGTCACCTAGTGCAG” was tested, and the binding signal was 9090 fluorescence intensity (a.u.). In the case of “ACATTTATTCCAATTCATTCATCAATCTTCTCAAATTTAGCGGAGTCACCTAGTGCAG”, the binding signal is reported as 8340 fluorescence intensity (a.u.). With “CCATTCTTCCTTTCTCTTTATTTTTTTCTCCCATTCTTTACGGAGTCACCTAGTGCAG” the binding signal was 11900 fluorescence intensity (a.u.). For “TAAACGTTCGATATGACATGGTGAAAAATTTTTGGGTGGGCGGAGTCACCTAGTGCAG”, the binding signal was 9920 fluorescence intensity (a.u.). “TCGTCCACCTCGGCTCCGTCCCCACCCTCGTCGTCTCCTCCGGAGTCACCTAGTGCAG” was tested, and the binding signal was 11200 fluorescence intensity (a.u.). With “CTTAGTTGTTATGGGCGGGTTAGAGTAATCTATTGTAACACGGAGTCACCTAGTGCAG” the binding signal was 13500 fluorescence intensity (a.u.).
